# Measurements as given in the supplement of paper PMC7666118.
# Sequences of proteins named here, by UniProt entry; tags and fusion partners are left off. A change or cut given only in a name is not applied to a line headed by its entry.
# UniProt Q4G0J3: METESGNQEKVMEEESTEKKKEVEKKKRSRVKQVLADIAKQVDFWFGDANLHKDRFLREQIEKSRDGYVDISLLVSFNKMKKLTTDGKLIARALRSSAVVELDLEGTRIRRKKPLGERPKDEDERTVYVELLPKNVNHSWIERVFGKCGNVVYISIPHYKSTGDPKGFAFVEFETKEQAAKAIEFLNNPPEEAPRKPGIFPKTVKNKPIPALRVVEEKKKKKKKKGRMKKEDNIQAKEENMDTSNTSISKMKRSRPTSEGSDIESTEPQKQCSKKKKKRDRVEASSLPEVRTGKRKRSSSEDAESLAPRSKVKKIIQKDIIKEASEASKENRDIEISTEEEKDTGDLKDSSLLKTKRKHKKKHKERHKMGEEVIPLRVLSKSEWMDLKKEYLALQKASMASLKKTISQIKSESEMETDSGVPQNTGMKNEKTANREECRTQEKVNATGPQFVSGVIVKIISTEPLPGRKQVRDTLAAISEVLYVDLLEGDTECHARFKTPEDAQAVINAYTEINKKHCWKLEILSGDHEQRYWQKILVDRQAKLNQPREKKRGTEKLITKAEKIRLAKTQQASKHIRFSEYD
# UniProt Q86UP2: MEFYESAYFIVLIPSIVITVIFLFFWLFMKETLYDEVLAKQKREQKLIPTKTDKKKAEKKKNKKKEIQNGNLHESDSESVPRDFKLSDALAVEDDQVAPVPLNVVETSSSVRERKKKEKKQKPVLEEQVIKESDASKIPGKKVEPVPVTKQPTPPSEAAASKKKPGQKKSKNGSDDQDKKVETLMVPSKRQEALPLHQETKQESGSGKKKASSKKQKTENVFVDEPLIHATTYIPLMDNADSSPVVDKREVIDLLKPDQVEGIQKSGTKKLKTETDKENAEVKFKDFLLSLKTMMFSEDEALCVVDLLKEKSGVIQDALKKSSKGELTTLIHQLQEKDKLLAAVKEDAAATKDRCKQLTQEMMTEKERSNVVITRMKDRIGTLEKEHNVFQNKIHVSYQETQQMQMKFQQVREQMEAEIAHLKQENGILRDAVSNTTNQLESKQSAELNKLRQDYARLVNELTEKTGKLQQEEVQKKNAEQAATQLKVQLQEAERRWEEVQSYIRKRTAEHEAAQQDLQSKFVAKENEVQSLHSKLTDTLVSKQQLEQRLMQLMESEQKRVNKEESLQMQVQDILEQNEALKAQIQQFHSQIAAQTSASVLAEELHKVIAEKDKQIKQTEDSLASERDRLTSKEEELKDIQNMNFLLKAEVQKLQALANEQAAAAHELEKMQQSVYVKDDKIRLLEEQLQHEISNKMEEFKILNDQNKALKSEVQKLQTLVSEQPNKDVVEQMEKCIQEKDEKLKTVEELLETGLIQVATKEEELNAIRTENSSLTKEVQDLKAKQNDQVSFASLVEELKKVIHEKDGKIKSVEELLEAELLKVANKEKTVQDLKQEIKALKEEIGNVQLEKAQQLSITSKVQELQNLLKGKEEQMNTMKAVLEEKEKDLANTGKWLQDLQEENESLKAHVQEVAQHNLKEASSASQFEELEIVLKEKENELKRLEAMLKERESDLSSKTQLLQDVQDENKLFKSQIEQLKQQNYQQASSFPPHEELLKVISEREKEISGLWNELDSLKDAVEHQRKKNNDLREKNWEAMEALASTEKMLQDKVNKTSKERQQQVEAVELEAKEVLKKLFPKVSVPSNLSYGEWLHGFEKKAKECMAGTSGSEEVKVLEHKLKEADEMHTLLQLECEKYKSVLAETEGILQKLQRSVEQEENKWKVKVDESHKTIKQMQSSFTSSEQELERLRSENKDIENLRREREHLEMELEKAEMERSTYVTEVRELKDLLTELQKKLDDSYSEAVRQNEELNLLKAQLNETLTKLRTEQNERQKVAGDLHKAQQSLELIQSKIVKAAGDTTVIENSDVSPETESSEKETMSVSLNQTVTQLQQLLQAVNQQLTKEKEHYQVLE
# UniProt Q96N16: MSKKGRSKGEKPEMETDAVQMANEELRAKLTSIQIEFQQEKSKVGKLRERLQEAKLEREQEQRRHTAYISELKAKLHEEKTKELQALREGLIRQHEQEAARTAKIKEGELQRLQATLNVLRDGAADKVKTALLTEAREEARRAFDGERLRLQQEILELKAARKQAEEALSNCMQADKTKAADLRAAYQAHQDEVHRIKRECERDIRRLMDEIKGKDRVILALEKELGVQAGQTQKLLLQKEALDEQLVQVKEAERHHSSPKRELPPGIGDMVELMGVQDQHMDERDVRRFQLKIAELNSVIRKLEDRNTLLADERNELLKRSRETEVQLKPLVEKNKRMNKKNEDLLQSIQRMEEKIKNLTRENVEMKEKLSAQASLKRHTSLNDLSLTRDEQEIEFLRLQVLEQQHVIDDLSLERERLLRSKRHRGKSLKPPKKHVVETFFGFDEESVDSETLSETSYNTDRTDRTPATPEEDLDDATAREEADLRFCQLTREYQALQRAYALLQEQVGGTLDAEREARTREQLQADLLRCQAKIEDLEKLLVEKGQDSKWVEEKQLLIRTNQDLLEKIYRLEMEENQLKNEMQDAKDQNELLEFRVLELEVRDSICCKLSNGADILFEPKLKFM
# UniProt Q03252: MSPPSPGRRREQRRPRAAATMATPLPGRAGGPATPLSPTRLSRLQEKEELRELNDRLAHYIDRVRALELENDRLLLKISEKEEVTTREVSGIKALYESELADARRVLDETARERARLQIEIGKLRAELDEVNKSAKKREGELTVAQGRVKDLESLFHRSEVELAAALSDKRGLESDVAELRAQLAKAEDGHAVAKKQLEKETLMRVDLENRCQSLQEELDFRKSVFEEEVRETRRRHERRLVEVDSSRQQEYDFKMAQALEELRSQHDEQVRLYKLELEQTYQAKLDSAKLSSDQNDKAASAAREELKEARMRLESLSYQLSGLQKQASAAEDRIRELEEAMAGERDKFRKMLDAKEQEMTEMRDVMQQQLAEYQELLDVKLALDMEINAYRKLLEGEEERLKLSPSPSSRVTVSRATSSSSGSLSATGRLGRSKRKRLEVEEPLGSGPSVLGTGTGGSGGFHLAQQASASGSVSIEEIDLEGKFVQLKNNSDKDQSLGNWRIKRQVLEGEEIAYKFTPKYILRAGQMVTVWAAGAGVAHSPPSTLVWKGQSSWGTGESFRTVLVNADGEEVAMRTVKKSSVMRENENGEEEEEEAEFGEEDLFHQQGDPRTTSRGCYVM
# UniProt Q9Y2K7: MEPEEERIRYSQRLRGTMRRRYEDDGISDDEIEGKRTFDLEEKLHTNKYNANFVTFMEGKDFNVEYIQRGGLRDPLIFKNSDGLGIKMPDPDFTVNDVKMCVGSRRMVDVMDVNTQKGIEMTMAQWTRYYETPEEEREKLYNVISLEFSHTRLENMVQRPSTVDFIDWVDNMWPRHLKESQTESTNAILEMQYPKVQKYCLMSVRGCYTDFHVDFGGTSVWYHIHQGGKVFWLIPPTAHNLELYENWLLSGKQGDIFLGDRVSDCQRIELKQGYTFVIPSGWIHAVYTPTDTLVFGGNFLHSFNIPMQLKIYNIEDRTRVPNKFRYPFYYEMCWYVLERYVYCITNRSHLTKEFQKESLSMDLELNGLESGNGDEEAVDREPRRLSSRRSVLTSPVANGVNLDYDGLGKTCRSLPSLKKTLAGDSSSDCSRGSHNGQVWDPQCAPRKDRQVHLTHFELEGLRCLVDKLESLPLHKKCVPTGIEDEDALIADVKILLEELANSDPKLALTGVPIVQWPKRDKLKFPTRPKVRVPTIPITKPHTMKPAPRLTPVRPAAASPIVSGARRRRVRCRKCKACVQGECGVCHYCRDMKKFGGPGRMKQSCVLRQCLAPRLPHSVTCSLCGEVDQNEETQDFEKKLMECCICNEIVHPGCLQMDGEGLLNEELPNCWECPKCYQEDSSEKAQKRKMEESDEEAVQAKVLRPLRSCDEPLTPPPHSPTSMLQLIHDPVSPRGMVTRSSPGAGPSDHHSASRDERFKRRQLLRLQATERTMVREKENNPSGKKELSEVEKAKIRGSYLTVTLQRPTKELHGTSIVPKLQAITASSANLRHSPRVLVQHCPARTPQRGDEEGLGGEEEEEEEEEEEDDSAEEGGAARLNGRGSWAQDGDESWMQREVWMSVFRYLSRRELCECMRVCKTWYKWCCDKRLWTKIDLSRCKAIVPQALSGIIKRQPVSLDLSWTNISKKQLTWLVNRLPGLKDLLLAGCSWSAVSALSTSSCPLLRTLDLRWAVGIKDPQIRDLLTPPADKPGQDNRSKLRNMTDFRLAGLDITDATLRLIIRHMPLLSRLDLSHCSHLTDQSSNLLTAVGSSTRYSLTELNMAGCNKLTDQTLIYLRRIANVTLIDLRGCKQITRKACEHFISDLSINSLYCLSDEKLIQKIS
# UniProt P06239: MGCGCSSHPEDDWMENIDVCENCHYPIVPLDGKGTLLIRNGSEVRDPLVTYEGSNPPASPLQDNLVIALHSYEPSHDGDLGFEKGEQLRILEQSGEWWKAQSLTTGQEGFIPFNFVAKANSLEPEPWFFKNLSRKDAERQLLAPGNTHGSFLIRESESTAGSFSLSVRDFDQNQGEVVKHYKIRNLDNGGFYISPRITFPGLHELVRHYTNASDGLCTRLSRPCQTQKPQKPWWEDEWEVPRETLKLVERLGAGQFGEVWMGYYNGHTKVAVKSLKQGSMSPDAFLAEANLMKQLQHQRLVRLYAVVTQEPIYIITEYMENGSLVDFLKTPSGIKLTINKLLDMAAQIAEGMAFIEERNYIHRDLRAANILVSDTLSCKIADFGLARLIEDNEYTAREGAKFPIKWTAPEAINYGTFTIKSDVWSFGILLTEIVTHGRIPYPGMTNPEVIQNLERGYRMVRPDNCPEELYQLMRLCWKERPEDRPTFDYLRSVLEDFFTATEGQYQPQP
# UniProt Q9NVH2, whole entry: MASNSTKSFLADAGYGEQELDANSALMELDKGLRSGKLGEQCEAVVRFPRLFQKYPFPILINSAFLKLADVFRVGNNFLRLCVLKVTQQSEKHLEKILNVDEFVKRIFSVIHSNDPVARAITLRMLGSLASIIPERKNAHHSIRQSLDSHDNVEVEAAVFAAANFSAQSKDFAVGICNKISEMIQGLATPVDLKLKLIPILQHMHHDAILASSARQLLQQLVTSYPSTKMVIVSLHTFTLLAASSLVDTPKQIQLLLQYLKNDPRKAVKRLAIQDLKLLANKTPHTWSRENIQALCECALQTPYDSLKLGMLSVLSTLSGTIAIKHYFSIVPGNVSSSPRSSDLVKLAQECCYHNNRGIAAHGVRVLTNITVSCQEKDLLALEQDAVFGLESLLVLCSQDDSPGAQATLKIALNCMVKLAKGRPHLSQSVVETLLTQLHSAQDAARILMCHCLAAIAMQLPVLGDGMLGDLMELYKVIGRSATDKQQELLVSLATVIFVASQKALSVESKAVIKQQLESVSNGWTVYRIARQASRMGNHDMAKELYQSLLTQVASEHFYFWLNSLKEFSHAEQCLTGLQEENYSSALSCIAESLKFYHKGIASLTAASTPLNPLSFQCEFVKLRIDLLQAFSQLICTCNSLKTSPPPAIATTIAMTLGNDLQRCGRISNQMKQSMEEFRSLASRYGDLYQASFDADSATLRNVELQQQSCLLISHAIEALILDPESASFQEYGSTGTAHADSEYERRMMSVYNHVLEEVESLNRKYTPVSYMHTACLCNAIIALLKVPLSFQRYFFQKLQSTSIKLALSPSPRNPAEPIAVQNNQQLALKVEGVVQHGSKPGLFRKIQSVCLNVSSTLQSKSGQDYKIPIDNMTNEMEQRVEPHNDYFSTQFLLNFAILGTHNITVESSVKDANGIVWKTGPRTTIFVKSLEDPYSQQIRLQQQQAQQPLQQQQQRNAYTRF
# The list shows a part of the results.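 Rule for the calls: active = dose-dependent thermal stabilisation significant by F-test of dose-response against flat model at 10% FDR; inactive = not significant.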
# Compound: Nc1nc2c(ncn2[C@@H]2O[C@H](COP(=O)(O)OP(=O)(O)OP(=O)(O)O)[C@@H](O)[C@H]2O)c(=O)[nH]1
# Assay: dose-dependent thermal stabilisation call (2D-TPP, DLPTP, 10% FDR) (binary (1 = stabilised)); higher = stabilised by the compound
# Conditions: system: Jurkat gel-filtered lysate; concentration range 1-500 µM
row,Target,dose-dependent thermal stabilisation call
1,LARP7 (UniProt Q4G0J3),active: 1
2,KTN1 (UniProt Q86UP2),inactive: 0
3,JAKMIP1 (UniProt Q96N16),inactive: 0
4,JMY (UniProt Q8N9B5),inactive: 0
5,LMNB2 (UniProt Q03252),inactive: 0
6,KDM2A (UniProt Q9Y2K7),inactive: 0
7,LCK (UniProt P06239),active: 1
8,INTS7 (UniProt Q9NVH2),inactive: 0
